# According to patent publication US9809624B2 (INSERM (Institut National de la Sante et de la Recherche …, priority 2009, dated 2017):
# Test: general procedure: Fmoc solid-phase peptide synthesis; Wang resin (DOTA-LB119); TBTU/HOBt/DIPEA (DTPA coupling); DIC/HOBt (Fmoc-Ahx); HATU (DOTA(OtBu)3)
# Conditions: whole synthesis, HPLC on Nucleosil C18 or Discovery BIO SUPELCO Wide Pore column, water/CH3CN (0.05% TFA) gradient
row,Substance,final HPLC purity
1,DTPA-Ahx-Arg-Me-Arg-Pro-Dmt-Tle-Leu-OH,97%
2,DTPA-Lys-Ψ(CH2-NH)-Arg-Pro-Tyr-Tle-Leu-OH,97%
3,DTPA-Arg-Arg-Pro-Tyr-Ile-Leu-OH,>96%
4,DTPA-Ahx-Arg-Me-Arg-Pro-Tyr-Tle-Leu-OH,92%
5,Ac-Lys(Ahx-DOTA)-Pro-Me-Arg-Arg-Pro-Dmt-Tle-Leu-OH,>95%
6,DTPA-Lys-Ψ(CH2-NH)-Arg-Pro-Tyr-Ile-Leu-OH,95%

# Test: peptide made by a vendor (Fmoc solid-phase peptide synthesis; Wang resin (DOTA-LB119); TBTU/HOBt/DIPEA (DTPA coupling); DIC/HOBt (Fmoc-Ahx); HATU (DOTA(OtBu)3))
# Conditions: conjugation step
row,Substance,conjugation yield
1,Ac-Lys(DOTA)-Pro-Me-Arg-Arg-Pro-Tyr-Tle-Leu-OH,approximately 85%

# Same assay, conditions: conjugation step, HPLC on Nucleosil C18 or Discovery BIO SUPELCO Wide Pore column, water/CH3CN (0.05% TFA) gradient
row,Substance,final HPLC purity
1,Ac-Lys(DOTA)-Pro-Me-Arg-Arg-Pro-Tyr-Tle-Leu-OH,98%
2,Ac-Lys(DTPA)-Pro-Arg-Arg-Pro-Tyr-Ile-Leu-OH,>99%
3,Ac-Lys(DTPA)-Pro-Arg-Arg-Pro-Tyr-Tle-Leu-OH,>97%
4,Ac-Lys(DTPA)-Pro-Me-Arg-Arg-Pro-Tyr-Tle-Leu-OH,>99%
